# The other results are listed elsewhere or left out. Most entries show no effect beyond the scatter of the controls.
# The chains behind the UniProt entries cited, without tags or fusion partners. Where a name states a change or a piece, a line headed by the entry shows the natural chain unless it says otherwise.
# UniProt Q9UN37: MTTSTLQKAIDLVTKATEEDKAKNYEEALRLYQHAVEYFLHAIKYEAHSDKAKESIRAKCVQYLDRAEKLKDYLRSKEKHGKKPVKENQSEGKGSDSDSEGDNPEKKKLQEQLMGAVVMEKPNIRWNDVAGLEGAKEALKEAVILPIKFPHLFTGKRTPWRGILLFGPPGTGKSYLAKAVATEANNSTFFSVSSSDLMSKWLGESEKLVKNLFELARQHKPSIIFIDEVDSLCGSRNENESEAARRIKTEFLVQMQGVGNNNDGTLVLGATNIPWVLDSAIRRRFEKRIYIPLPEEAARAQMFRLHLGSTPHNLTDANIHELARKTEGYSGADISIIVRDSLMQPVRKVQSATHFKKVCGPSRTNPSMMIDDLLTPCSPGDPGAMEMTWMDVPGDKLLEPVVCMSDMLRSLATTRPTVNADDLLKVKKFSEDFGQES
# UniProt Q9Y232: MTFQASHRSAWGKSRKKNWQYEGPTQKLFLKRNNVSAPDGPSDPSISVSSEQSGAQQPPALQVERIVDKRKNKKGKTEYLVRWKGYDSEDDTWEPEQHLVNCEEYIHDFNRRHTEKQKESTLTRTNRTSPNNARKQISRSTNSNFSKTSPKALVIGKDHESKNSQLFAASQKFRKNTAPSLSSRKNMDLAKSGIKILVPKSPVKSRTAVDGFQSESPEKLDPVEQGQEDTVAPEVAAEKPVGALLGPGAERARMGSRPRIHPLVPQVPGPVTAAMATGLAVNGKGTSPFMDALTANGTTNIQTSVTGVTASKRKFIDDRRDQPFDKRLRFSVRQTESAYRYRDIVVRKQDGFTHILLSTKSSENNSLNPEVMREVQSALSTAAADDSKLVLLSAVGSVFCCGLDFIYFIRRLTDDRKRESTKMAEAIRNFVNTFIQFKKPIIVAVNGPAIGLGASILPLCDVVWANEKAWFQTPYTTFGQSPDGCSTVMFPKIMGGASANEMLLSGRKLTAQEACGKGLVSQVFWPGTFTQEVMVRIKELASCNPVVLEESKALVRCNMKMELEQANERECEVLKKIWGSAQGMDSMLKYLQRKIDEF
# UniProt Q9ULK5: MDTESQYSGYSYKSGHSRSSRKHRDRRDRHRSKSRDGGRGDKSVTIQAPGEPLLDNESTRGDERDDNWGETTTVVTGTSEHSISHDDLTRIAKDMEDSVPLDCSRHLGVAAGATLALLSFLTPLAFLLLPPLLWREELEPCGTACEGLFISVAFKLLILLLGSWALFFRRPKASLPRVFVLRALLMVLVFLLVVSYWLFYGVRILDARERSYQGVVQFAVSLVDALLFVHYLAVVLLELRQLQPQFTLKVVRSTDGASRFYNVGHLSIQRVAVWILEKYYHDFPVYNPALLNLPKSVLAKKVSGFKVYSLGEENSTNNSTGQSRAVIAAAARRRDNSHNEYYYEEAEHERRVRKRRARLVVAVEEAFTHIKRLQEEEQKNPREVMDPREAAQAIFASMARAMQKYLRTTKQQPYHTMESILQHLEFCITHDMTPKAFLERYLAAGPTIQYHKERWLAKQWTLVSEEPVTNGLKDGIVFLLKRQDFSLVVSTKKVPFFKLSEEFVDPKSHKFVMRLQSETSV
# UniProt Q9ULM6, whole entry: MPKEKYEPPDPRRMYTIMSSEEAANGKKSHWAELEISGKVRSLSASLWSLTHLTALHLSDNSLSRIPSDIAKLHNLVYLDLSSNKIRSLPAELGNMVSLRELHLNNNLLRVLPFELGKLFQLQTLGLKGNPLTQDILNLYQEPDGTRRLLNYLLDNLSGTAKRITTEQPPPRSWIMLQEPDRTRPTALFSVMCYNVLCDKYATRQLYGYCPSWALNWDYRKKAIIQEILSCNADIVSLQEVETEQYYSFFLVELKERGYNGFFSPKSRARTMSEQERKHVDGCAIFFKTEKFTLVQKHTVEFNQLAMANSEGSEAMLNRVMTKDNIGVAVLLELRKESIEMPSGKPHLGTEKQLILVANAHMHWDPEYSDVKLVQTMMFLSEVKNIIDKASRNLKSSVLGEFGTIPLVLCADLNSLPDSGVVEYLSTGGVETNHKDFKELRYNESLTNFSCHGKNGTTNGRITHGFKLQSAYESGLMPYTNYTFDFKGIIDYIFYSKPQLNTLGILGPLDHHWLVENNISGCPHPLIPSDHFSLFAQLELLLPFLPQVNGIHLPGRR
# UniProt Q9UN36: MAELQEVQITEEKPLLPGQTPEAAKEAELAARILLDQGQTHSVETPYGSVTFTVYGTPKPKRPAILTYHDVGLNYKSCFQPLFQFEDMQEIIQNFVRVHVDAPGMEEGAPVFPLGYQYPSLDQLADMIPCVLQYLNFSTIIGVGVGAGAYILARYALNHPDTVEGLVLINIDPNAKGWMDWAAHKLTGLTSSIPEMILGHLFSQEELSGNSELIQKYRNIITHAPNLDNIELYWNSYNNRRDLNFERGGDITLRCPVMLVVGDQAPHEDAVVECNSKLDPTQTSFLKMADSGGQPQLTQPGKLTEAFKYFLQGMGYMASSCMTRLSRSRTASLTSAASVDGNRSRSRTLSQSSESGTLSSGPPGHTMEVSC
# UniProt Q9Y243: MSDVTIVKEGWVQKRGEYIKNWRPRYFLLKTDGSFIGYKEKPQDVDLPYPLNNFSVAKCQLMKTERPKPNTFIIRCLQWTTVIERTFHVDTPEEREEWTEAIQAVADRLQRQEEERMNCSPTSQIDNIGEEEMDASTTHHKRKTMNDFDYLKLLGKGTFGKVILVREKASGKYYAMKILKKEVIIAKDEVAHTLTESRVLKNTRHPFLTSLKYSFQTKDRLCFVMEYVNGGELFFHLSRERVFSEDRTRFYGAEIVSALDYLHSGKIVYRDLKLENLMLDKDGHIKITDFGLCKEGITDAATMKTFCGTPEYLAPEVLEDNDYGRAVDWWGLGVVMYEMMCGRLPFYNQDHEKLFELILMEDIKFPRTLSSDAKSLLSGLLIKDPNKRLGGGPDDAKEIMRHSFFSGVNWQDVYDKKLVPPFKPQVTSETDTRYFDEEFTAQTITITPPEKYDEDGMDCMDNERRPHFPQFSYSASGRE
# UniProt Q9UNN5: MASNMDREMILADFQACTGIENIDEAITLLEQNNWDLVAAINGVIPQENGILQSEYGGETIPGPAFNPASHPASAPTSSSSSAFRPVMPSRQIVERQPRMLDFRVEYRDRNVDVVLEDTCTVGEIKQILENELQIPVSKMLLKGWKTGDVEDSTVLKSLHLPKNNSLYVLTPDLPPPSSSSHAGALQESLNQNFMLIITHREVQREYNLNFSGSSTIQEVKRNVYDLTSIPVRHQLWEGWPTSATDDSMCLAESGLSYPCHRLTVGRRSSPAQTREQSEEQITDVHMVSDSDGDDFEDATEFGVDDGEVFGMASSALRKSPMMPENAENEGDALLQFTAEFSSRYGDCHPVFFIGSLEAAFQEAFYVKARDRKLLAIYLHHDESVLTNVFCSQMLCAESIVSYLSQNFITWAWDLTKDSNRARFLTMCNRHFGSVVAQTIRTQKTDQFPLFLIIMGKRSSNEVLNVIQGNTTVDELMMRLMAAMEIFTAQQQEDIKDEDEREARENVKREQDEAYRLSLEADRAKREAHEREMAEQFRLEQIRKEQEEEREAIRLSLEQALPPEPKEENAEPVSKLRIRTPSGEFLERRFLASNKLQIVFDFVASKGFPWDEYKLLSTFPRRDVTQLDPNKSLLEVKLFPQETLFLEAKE
# UniProt Q9UPW6: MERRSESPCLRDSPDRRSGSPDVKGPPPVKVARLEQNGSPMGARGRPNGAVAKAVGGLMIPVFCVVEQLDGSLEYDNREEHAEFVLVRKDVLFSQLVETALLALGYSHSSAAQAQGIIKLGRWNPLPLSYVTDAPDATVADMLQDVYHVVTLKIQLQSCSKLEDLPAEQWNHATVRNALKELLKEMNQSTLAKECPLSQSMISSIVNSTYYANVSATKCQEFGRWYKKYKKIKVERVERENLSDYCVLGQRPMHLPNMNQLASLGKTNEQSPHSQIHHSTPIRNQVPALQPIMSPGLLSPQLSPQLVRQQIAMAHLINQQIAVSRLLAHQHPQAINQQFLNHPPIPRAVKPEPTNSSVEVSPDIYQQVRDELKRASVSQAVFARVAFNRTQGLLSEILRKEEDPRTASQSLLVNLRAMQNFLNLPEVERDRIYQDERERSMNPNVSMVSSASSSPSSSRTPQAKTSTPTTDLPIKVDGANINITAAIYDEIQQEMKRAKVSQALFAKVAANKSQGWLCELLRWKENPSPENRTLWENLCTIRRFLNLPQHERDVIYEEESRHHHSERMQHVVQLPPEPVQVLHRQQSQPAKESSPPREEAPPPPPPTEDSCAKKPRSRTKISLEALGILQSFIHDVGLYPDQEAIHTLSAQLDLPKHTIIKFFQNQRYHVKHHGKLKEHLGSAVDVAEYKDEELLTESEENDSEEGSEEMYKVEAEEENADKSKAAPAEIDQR
# UniProt Q9UK76: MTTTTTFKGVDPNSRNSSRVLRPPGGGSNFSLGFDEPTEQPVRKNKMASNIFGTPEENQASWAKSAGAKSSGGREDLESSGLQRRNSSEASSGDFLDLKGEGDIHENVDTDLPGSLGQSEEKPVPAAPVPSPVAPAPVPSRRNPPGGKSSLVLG
# UniProt Q9Y255: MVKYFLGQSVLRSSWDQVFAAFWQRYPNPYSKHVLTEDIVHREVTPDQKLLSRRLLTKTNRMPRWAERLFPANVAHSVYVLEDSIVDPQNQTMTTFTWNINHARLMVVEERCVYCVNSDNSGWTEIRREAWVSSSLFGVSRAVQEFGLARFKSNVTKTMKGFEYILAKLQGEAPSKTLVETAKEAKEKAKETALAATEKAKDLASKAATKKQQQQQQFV
# UniProt Q9UMF0: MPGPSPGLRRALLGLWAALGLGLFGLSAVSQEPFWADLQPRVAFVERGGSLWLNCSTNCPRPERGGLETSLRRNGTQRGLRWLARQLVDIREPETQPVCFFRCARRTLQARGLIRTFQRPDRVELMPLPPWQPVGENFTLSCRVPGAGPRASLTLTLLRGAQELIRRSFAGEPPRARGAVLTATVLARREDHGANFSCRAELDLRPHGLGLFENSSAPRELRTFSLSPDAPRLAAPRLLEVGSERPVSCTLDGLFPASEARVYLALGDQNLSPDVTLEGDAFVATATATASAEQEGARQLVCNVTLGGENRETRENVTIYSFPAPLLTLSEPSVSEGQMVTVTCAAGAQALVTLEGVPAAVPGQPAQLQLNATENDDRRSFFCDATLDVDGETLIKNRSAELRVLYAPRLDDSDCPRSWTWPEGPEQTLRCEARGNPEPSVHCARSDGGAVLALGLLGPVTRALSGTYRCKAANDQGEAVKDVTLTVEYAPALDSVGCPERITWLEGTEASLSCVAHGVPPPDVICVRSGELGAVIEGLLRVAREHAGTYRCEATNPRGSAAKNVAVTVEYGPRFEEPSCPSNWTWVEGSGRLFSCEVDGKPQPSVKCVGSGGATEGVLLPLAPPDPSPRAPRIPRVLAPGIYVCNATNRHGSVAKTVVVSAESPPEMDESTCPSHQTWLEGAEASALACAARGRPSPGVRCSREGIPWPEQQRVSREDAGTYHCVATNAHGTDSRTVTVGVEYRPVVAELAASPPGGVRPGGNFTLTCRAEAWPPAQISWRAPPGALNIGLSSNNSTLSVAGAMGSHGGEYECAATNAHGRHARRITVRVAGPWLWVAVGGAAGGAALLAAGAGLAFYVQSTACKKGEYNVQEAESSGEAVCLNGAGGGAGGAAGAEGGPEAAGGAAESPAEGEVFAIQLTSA
# Compound: Cc1nc(Nc2ncc(C(=O)Nc3c(C)cccc3Cl)s2)cc(N2CCN(CCO)CC2)n1 [dasatinib]
# Experiment: log2 fold change of tryptic peptide abundance, ligand vs vehicle (limited proteolysis) (log2 ratio); higher = more trypsin-susceptible (destabilized)
# Conditions: ligand concentration: 5 uM; sample: K562 cleared lysate
row,Target,log2 fold change
1,"VPS4A (peptide sequence: ATEEDKAK, peptide start residue: 16) (UniProt Q9UN37)",0.483
2,"CDYL (peptide sequence: MELEQANERECEVLK, peptide start residue: 561) (UniProt Q9Y232)",0.3
3,"VANGL2 (peptide sequence: RLQEEEQK, peptide start residue: 372) (UniProt Q9ULK5)",-0.133
4,"CNOT6 (peptide sequence: ESIEMPSGKPHLGTEK, peptide start residue: 337) (UniProt Q9ULM6)",0.23
5,"NDRG2 (peptide sequence: LDPTQTSFLK, peptide start residue: 278) (UniProt Q9UN36)",0.00766
6,"AKT3 (peptide sequence: LPFYNQDHEK, peptide start residue: 347) (UniProt Q9Y243)",0.347
7,"FAF1 (peptide sequence: LSLEQALPPEPK, peptide start residue: 555) (UniProt Q9UNN5)",-0.901
8,"SATB2 (peptide sequence: AAPAEIDQR, peptide start residue: 725) (UniProt Q9UPW6)",0.132
9,"UniProt Q9UK76 (peptide sequence: SSGGREDLESSGLQRR, peptide start residue: 70)",-0.68
10,"PRELID1 (peptide sequence: GFEYILAK, peptide start residue: 161) (UniProt Q9Y255)",-0.411
11,"ICAM5 (peptide sequence: GNPEPSVHCAR, peptide start residue: 435) (UniProt Q9UMF0)",-0.277
